# Assay results reported in the supplement of paper PMC11237882.
# This is one part of the list. Values are worked out from sequencing counts and are noisy.
# Molecular target: T1, Homer1 EVH1 domain
# T1 chain: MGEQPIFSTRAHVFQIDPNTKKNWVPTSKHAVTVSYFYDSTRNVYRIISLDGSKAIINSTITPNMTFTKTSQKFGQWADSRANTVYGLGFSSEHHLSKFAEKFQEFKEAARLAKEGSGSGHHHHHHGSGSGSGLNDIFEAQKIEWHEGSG
# Assay: enrichment score (AUC of log2 frequency ratio across FACS sorting rounds) (log2 AUC); higher = stronger enrichment for Homer1 EVH1 binding
row,Binder,enrichment score
1,HLNSDYSYGFAYILAWVAFPLALLSGVIYVILRKRE,3
2,DPAFAMMVCLTLLIALLSINGFAYFIRRRINKIQLI,3.02
3,KLWEMLAYVLLPLLYLLVRKHINRAHTALYEYRPIL,2.01
4,SGGLSQPAGWQSLLSFTILFLAWLAGFSSRLFAVIR,0.34
5,GVLGVFPLLGIIFSYSRIASSIRKMSSSGGKQKALS,1.46
6,QKTVKLMYYLWMFHAVTLFLNIFGCLAWFCVDSARV,2.39
7,SPALSLLIILYVKLSLFVVILVTTGFVFFQRINHVR,0.102
8,HLQVQGGGPQRRTQGLKEKLRPGPLASTTAHSRRLL,-1.89
9,EDVWEPGGQLSAQNLYLVIALACISFLFLGCLLFFV,5.19
10,SDATVTTLGNLVPFTLTLLCFLLLICSLCKHLKKMQ,2.77
11,MEKINNVTEFIFWGLSQSPEIEKVCFVVFSFFYIII,-0.64
12,VGLLHMVLLSIPFFSIPVVWTLTNVIHNLATYVFLH,3.03
13,EVAHSSLQIVLALAGFIYACYVVECITEEEDSFDFI,-0.152
14,EQRRRPGLCPPPLELLLLLLFSLGLLHAGDCQQPAQ,1.99
15,RGYRNHRSSRETREYAPPSRGHGYRDYGHSRRHESY,0.872
16,MANSGLQLLGFSMALLGWVGLVACTAIPQWQMSSYA,4.01
17,LSVLRLACADTWLNQVVIFAACVFFLVGPPSLVLVS,-1.44
18,TGFRIFQNTHAIDKYSRLIFPASYIFFNLIYWSVFS,-3.36
19,MSPVRRWGSPCLFPLQLFSLCWVLSVAQSKTVRYST,0.397
20,MAPENFTRVTEFILTGVSSCPELQIPLFLVFLVLYG,-0.479
21,MRKRAPQSEMAPAGVSLRATILCLLAWAGLAAGDRV,0.786
22,KMVHGVYKKSIFVFTHVLVPVWIIHYYMKYHVSEKP,0.172

row,Binder,enrichment score
1,KKSISYPACLVQCYLFIALVHVEIYILAVMAFDRYM,2.21
2,MHTCCPPVTLEQDLHRKMHSWMLQTLAFAVTSLVLS,-1.76
3,MPLLPSTVGLAGLLFWAGQAVNALIMPNATPAPAQP,0.599
4,LNICALILGILMTILLPEPSPVSALYPHTLFYDGIQ,4.5
5,MTGDCMPVLVLMAAVLTVTGAVPVARLRGALPDARG,2.68
6,NWHLLTNFICVAIFLNFSAIILISNCLVIRQLYRNK,0.416
7,QRQKLLEQQRREKTENEGRRKFIKNKAWSKQKAKKE,1.22
8,KGMLGLIVYLGMMVGAFLWGGLADRLGRRQCLLICL,0.934
9,MARGAALALLLFGLLGVLVAAPDGGFDLSDALPDNE,1.6
10,LSQVYILTILILNVVAFFIICACYIKIYFAVRNPEL,1.98
11,MATKRLARQLGLIRRKSIAPANGNLGRSKSKQLFDY,1.69
12,IGDNDVKDLIGFFILLGGSVLLAANVTLGLWLVTAR,2.45
13,MMWPMHTPLLLLTALMVAVAGSASAQSRTLAGGIHA,1.66
14,LFDSYAASGMCLLFVAIFECICIGWVYGSNRFYDNI,1.51
15,LEIKALRMKLGPLQFSVLWPYYVLGFGIFLFIVAGT,-1.94
16,GPYVMMIGKMVANMFYIVVIMALVLLSFGVPRKAIL,-2.41
17,TLERPPALAMPLPTEGTPPPLSGTPIPVPAYFRHAE,4.76
18,PVQDQLSQSERYLYGSLATLLICLCAVFGLLLLTCT,1.57
19,VIMGVGTLLIAMPQFFMEQYKYERYSPSSNSTLSIS,2.17
20,ALLADSQPPNRRALAVYPVFLFYFVISWMILTFTPQ,4.31
21,GEDWIFLVLLGLLMALVSWVMDYAIAACLQAQQWMS,2.71
22,TLTTIGFGDTVLEHPNFFLFFSIYIIVGMEIVFIAF,0.972
